Results deposited as PubChem BioAssay AID1259405 (NCATS, 2018)

Screen: 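Mouse-designed siRNAs used to find CHO productivity engineering targets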 (primary screen)
Cell system: Chinese hamster CHO-K1 ovary cells with stable secreted eGFP expression
Reagent: single siRNA against mouse genes, 0.8 pmol siRNA per well (2 µl of 400 nM stock)
Timing: 3 days
Read-out: 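Percent of the per-plate non-targeting control median for intracellular GFP per well by laser scanning cytometry and for cell viability by ATP luminescence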
Reading the numbers: GFP, % of control: higher = more GFP per well, higher productivity; viability (ATP), % of control: higher = more viable cells (more ATP)
Rule for the call: 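Called active when intracellular GFP, relative to negative control, is at or above 120%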
Here is one part, drawn at random, of about 50,000 deposited reagents. Over the whole deposit, about 4,000 (8%) got an active call. 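Mouse siRNA library applied to hamster cells; one well for each siRNA.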 A number with no mark means an inactive call. The numbers tell different reagents against one gene apart.

For Igbp1 (immunoglobulin (CD79A) binding protein 1) #1, what was measured?
GFP, % of control: 63.6; viability (ATP), % of control: 80.4

For Igbp1 (immunoglobulin (CD79A) binding protein 1) #2, what does the deposit list?
GFP, % of control: 99.8; viability (ATP), % of control: 67.7

What did the screen give for Igbp1 (immunoglobulin (CD79A) binding protein 1) #3?
GFP, % of control: 135 (active); viability (ATP), % of control: 64.4

What did the screen give for Nutf2 (nuclear transport factor 2) #1?
GFP, % of control: 126 (active); viability (ATP), % of control: 91.5

Which result is listed for Nutf2 (nuclear transport factor 2) #2?
GFP, % of control: 50; viability (ATP), % of control: 70.5

For Nutf2 (nuclear transport factor 2) #3, what was measured?
GFP, % of control: 61.4; viability (ATP), % of control: 51.1

How did the screen score Fdxr (ferredoxin reductase) #1?
GFP, % of control: 52.9; viability (ATP), % of control: 78.6

For Fdxr (ferredoxin reductase) #2, how do the results read?
GFP, % of control: 68.1; viability (ATP), % of control: 90.7

What did the screen give for Fdxr (ferredoxin reductase) #3?
GFP, % of control: 71.6; viability (ATP), % of control: 80.5

With Psma3 (proteasome subunit alpha 3) #1, how do the results read?
GFP, % of control: 11.8; viability (ATP), % of control: 5.84

With Psma3 (proteasome subunit alpha 3) #2, what does the deposit list?
GFP, % of control: 7.37; viability (ATP), % of control: 3.17

How did the screen score Psma3 (proteasome subunit alpha 3) #3?
GFP, % of control: 36.6; viability (ATP), % of control: 21.5

With Mcpt8 (mast cell protease 8) #1, what was measured?
GFP, % of control: 88.8; viability (ATP), % of control: 70.6

With Mcpt8 (mast cell protease 8) #2, what was measured?
GFP, % of control: 44; viability (ATP), % of control: 46.7

What is on record for Mcpt8 (mast cell protease 8) #3?
GFP, % of control: 85.5; viability (ATP), % of control: 98.5

With Gzma (granzyme A) #1, how do the results read?
GFP, % of control: 137 (active); viability (ATP), % of control: 101

With Gzma (granzyme A) #2, what does the deposit list?
GFP, % of control: 62.5; viability (ATP), % of control: 31.7

How did the screen score Gzma (granzyme A) #3?
GFP, % of control: 65.9; viability (ATP), % of control: 57.7

Which result is listed for Rbm34 (RNA binding motif protein 34) #1?
GFP, % of control: 42.5; viability (ATP), % of control: 72.6

How did the screen score Rbm34 (RNA binding motif protein 34) #2?
GFP, % of control: 95.9; viability (ATP), % of control: 76.2

For Rbm34 (RNA binding motif protein 34) #3, how do the results read?
GFP, % of control: 76.5; viability (ATP), % of control: 72.1

How did the screen score Tas2r109 (taste receptor, type 2, member 109) #1?
GFP, % of control: 38.8; viability (ATP), % of control: 55.7

With Tas2r109 (taste receptor, type 2, member 109) #2, what does the deposit list?
GFP, % of control: 124 (active); viability (ATP), % of control: 93.9

With Tas2r109 (taste receptor, type 2, member 109) #3, how do the results read?
GFP, % of control: 81.8; viability (ATP), % of control: 140

What did the screen give for Cldn6 (claudin 6) #1?
GFP, % of control: 30.6; viability (ATP), % of control: 27.9

With Cldn6 (claudin 6) #2, how do the results read?
GFP, % of control: 107; viability (ATP), % of control: 89.9

For Cldn6 (claudin 6) #3, how do the results read?
GFP, % of control: 127 (active); viability (ATP), % of control: 115

For Mcoln1 (mucolipin 1) #1, what was measured?
GFP, % of control: 119; viability (ATP), % of control: 111

What is on record for Mcoln1 (mucolipin 1) #2?
GFP, % of control: 81.5; viability (ATP), % of control: 63.5

For Mcoln1 (mucolipin 1) #3, what does the deposit list?
GFP, % of control: 30.2; viability (ATP), % of control: 46.8

With Med11 (mediator complex subunit 11) #1, what does the deposit list?
GFP, % of control: 68.2; viability (ATP), % of control: 70.9

What is on record for Med11 (mediator complex subunit 11) #2?
GFP, % of control: 74.4; viability (ATP), % of control: 47.5

What is on record for Med11 (mediator complex subunit 11) #3?
GFP, % of control: 109; viability (ATP), % of control: 88.7

How did the screen score Trap1a (tumor rejection antigen P1A) #1?
GFP, % of control: 38.4; viability (ATP), % of control: 47.7

What did the screen give for Trap1a (tumor rejection antigen P1A) #2?
GFP, % of control: 78.7; viability (ATP), % of control: 99.4

With Trap1a (tumor rejection antigen P1A) #3, what was measured?
GFP, % of control: 70.4; viability (ATP), % of control: 95.4

With Fchsd2 (FCH and double SH3 domains 2) #1, what was measured?
GFP, % of control: 45.4; viability (ATP), % of control: 55.4

For Fchsd2 (FCH and double SH3 domains 2) #2, what does the deposit list?
GFP, % of control: 65.5; viability (ATP), % of control: 57.8

What did the screen give for Fchsd2 (FCH and double SH3 domains 2) #3?
GFP, % of control: 49.7; viability (ATP), % of control: 59.8

What did the screen give for Or5d40 (olfactory receptor family 5 subfamily D member 40) #1?
GFP, % of control: 101; viability (ATP), % of control: 70.9

With Or5d40 (olfactory receptor family 5 subfamily D member 40) #2, what does the deposit list?
GFP, % of control: 59.8; viability (ATP), % of control: 80.9

With Or5d40 (olfactory receptor family 5 subfamily D member 40) #3, what was measured?
GFP, % of control: 68.7; viability (ATP), % of control: 71.6

What did the screen give for Or8g18 (olfactory receptor family 8 subfamily G member 18) #1?
GFP, % of control: 79.2; viability (ATP), % of control: 57.4

For Or8g18 (olfactory receptor family 8 subfamily G member 18) #2, how do the results read?
GFP, % of control: 29.4; viability (ATP), % of control: 42.1

How did the screen score Or8g18 (olfactory receptor family 8 subfamily G member 18) #3?
GFP, % of control: 90.5; viability (ATP), % of control: 82.9

For Gsta3 (glutathione S-transferase, alpha 3) #1, how do the results read?
GFP, % of control: 93.1; viability (ATP), % of control: 65

What is on record for Gsta3 (glutathione S-transferase, alpha 3) #2?
GFP, % of control: 104; viability (ATP), % of control: 103

For Gsta3 (glutathione S-transferase, alpha 3) #3, what does the deposit list?
GFP, % of control: 56.7; viability (ATP), % of control: 52.4

With Large2 (LARGE xylosyl- and glucuronyltransferase 2) #1, how do the results read?
GFP, % of control: 98.5; viability (ATP), % of control: 95.4

What did the screen give for Large2 (LARGE xylosyl- and glucuronyltransferase 2) #2?
GFP, % of control: 67; viability (ATP), % of control: 65.6

With Large2 (LARGE xylosyl- and glucuronyltransferase 2) #3, how do the results read?
GFP, % of control: 86.5; viability (ATP), % of control: 58

What is on record for Cited4 #1?
GFP, % of control: 151 (active); viability (ATP), % of control: 118

What is on record for Cited4 #2?
GFP, % of control: 108; viability (ATP), % of control: 98.5

For Cited4 #3, what does the deposit list?
GFP, % of control: 62.2; viability (ATP), % of control: 96.1
